# Tested on: 353 kinases
# Assay: Ambit global kinase profiling, active site-directed competition binding assay, 353 kinases
# Design: species or system human
# Conditions: 10 µM; for number of protein kinases at competition level 51–90% / number of protein kinases at competition level 91–98% / number of protein kinases at competition level 99–100% / share of total kinases tested inhibited at over 50%: 353 kinases; for number of kinases whose binding activity was inhibited at over 50%: out of 353 kinases
Structure (SMILES),number of protein kinases at competition level 51–90%,number of protein kinases at competition level 91–98%,number of protein kinases at competition level 99–100%,share of total kinases tested inhibited at over 50% [%],number of kinases whose binding activity was inhibited at over 50%
Fc1ccc(-c2c(-c3ccncc3)[nH]c3nccnc23)cc1 [Compound 122],59,47,17,35,123
CC(O)CNc1cc(-c2[nH]c3cccnc3c2-c2ccc(F)cc2)ccn1 (stereo not shown) [Compound 140],23,12,8,12,43

# — paper PMC3445516 (PLoS ONE, 2012)
